Reference: patent publication US6436660B1, “Identification of novel antimicrobial agents using metabolic oxidation-reduction indicator dyes” (XOMA Technology Ltd., priority 1999, dated 2002)
At least one compound was matched to its structure with a doubt left.

How the values were obtained:
[1] = test system: E. coli (ATCC strain 8739); assay: Effect of antibacterial compounds on bacteria with Alamar Blue (colorimetric OD595 assay); format: cell-based; settings: for bacteria; summary statement
Candida albicans = assay: Effect of antifungal compounds on fungal cells with Alamar Blue (fluorimetric metabolic oxidation-reduction indicator dye assay); format: cell-based; settings: for fungal cells; summary statement
Excerpt: Alamar Blue™ is an indicator dye formulated to measure quantitatively the proliferation of a variety of human or animal cells, bacteria, or fungi. It consists of an oxidation-reduction (REDOX) indicator that yields colorimetric and fluorimetric changes in response to metabolic activity (electron transport activity).
The relative effect of two BPI-derived peptides, XMP.391 (SEQ ID NO: 4) and XMP.445 (SEQ ID NO: 6), and the antifungal compound amphotericin B on fungal cells with the metabolic oxidation-reduction indicator dye Alamar Blue™ [AccuMed Int'l, Westlake, Ohio] was assessed as follows.
Candida albicans were grown in 75 mL Sabouraud's dextrose broth (SDB) for 5 hours at 30° C. Cells were pelleted by centrifiguation for 5 minutes in a Sorvall RT6000B centrifuge at 3,000 rpm (1500×g) and resuspended in 15 mL of fresh SDB. A 1:10 dilution of this suspension was used for an OD570 nm detennination. One OD unit is equivalent to 1×10^7 CFU/mL. […]
Alamar Blue™ was added at 20 μL per well and the initial (t=0) fluorescence readings were performed in a Molecular Devices SpectraMax Gemini plate reader. The excitation wavelength was 544 nm and the emission wavelength was measured at 590 nm. The plate was incubated at 37° C. and additional readings at 15, 30, 45 and 60 minutes were performed. Metabolic oxidation-reduction activity is detected by an increase in fluorescence emission.

| SMILES | characteristic "fingerprint" with metabolic oxidation-reduction indicator dye (statement on negative controls) [1] | characteristic "fingerprint" with metabolic oxidation-reduction indicator dye (statement on negative controls) (Candida albicans) |
| --- | --- | --- |
| CN(C)[C@@H]1C(O)=C(C(N)=O)C(=O)[C@@]2(O)C(O)=C3C(=O)c4c(O)cccc4[C@@](C)(O)[C@H]3C[C@@H]12 [tetracycline] | do not exhibit the characteristic “fingerprint,” |  |
| CCC(C)n1ncn(-c2ccc(N3CCN(c4ccc(OCC5COC(Cn6cncn6)(c6ccc(Cl)cc6Cl)O5)cc4)CC3)cc2)c1=O (centres unmarked) [itraconazole] |  | do not exhibit the characteristic “fingerprint,” |
